# Some of the results follow. Single values are uncertain, as repeats are few or missing.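 The apoptosis fraction was the count of cleaved-PARP antibody-stained nuclei relative to all DNA-stained nuclei, imaged in 1,536-well plates. Screening doses were set so most cells survived, and baseline and induced cleaved-PARP levels vary greatly across cell lines.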
# Key:
# Assay in all cases: cleaved PARP positive nuclei fraction relative to DMSO control; melanoma cells; higher = more apoptosis
# Details in all cases: library dose: low library concentration; 72 h
# [1] = system: MZ2-MEL
# [2] = system: MeWo
# [3] = system: RPMI7951
# [4] = system: RVH-421
# [5] = system: SkMel28
# [6] = system: SkMel30
# [7] = system: UACC62
# [8] = system: WM115
# [9] = system: WM1716
# [10] = system: WM1745
# [11] = system: WM3526
# [12] = system: WM3619
# [13] = system: WM451Lu
# [14] = system: SkMel2
# [15] = system: SkMel5
# [16] = system: UACC257
SMILES,cleaved PARP positive nuclei fraction [1],cleaved PARP positive nuclei fraction [2],cleaved PARP positive nuclei fraction [3],cleaved PARP positive nuclei fraction [4],cleaved PARP positive nuclei fraction [5],cleaved PARP positive nuclei fraction [6],cleaved PARP positive nuclei fraction [7],cleaved PARP positive nuclei fraction [8],cleaved PARP positive nuclei fraction [9],cleaved PARP positive nuclei fraction [10],cleaved PARP positive nuclei fraction [11],cleaved PARP positive nuclei fraction [12],cleaved PARP positive nuclei fraction [13],cleaved PARP positive nuclei fraction [14],cleaved PARP positive nuclei fraction [15],cleaved PARP positive nuclei fraction [16]
"CN1CCN(c2ccc3nc(-c4c(N)c5c(F)cccc5[nH]c4=O)[nH]c3c2)CC1 [Dovitinib] + CO[C@H]1C[C@@H]2CC[C@@H](C)[C@@](O)(O2)C(=O)C(=O)N2CCCC[C@H]2C(=O)O[C@H]([C@H](C)C[C@@H]2CC[C@@H](OCCO)[C@H](OC)C2)CC(=O)[C@H](C)/C=C(\C)[C@@H](O)[C@@H](OC)C(=O)[C@H](C)C[C@H](C)/C=C/C=C/C=C/1C [everolimus] (first compound 0.1 µM, partner dose 0.02 µM)",124%,207%,74.3%,80%,341%,56.3%,520%,181%,87.9%,125%,34%,112%,64.3%,,,
"O=C(O)[C@@H]1[O][Sb](=[O])([O][Sb]2(=[O])[O][C@H]([C@H](O)CO)[C@H](O)[C@H](C(=O)O)[O]2)[O][C@H]([C@H](O)CO)[C@@H]1O (stereo partly drawn) [stibogluconate] + Cn1cncc1[C@@](N)(c1ccc(Cl)cc1)c1ccc2c(c1)c(-c1cccc(Cl)c1)cc(=O)n2C [tipifarnib] (first compound 2 µM, partner dose 0.01 µM)",,49.6%,84.6%,218%,56.7%,107%,61.6%,233%,165%,82.8%,61.6%,214%,406%,122%,62.7%,123%
"CO[C@H]1C[C@@H]2CC[C@@H](C)[C@@](O)(O2)C(=O)C(=O)N2CCCC[C@H]2C(=O)O[C@H]([C@H](C)C[C@@H]2CC[C@@H](OCCO)[C@H](OC)C2)CC(=O)[C@H](C)/C=C(\C)[C@@H](O)[C@@H](OC)C(=O)[C@H](C)C[C@H](C)/C=C/C=C/C=C/1C [everolimus] + C=CCNC1=C2C[C@@H](C)C[C@H](OC)[C@H](O)[C@@H](C)/C=C(\C)[C@H](OC(N)=O)[C@@H](OC)/C=C\C=C(/C)C(=O)NC(=CC1=O)C2=O [Tanespimycin] (first compound 0.02 µM, partner dose 0.002 µM)",152%,140%,137%,126%,143%,163%,161%,79.6%,88.7%,133%,69.6%,115%,118%,,,
"Cn1c(=O)n(-c2ccc(C(C)(C)C#N)cc2)c2c3cc(-c4cnc5ccccc5c4)ccc3ncc21 + CO[C@H]1C[C@@H]2CC[C@@H](C)[C@@](O)(O2)C(=O)C(=O)N2CCCC[C@H]2C(=O)O[C@H]([C@H](C)C[C@@H]2CC[C@@H](OCCO)[C@H](OC)C2)CC(=O)[C@H](C)/C=C(\C)[C@@H](O)[C@@H](OC)C(=O)[C@H](C)C[C@H](C)/C=C/C=C/C=C/1C [everolimus] (first compound 0.004 µM, partner dose 0.02 µM)",123%,230%,193%,122%,983%,93.6%,1020%,411%,177%,128%,34.7%,231%,122%,,,
"Cn1c(=O)n(-c2ccc(C(C)(C)C#N)cc2)c2c3cc(-c4cnc5ccccc5c4)ccc3ncc21 + CNC(=O)c1cc(Oc2ccc(NC(=O)Nc3ccc(Cl)c(C(F)(F)F)c3)cc2)ccn1 [sorafenib] (first compound 0.004 µM, partner dose 0.4 µM)",,199%,71%,73.7%,145%,89%,82.3%,114%,346%,96.3%,47.6%,93.5%,83.7%,126%,,
"O=C(O)[C@@H]1[O][Sb](=[O])([O][Sb]2(=[O])[O][C@H]([C@H](O)CO)[C@H](O)[C@H](C(=O)O)[O]2)[O][C@H]([C@H](O)CO)[C@@H]1O (stereo partly drawn) [stibogluconate] + N#Cc1c(O)c2c(-c3ccc(-c4ccccc4O)cc3)csc2[nH]c1=O [A769662] (first compound 2 µM, partner dose 2 µM)",,160%,206%,151%,116%,138%,90.6%,87.8%,101%,77.5%,465%,99.7%,134%,86.6%,153%,44.3%
"CO[C@H]1C[C@@H]2CC[C@@H](C)[C@@](O)(O2)C(=O)C(=O)N2CCCC[C@H]2C(=O)O[C@H]([C@H](C)C[C@@H]2CC[C@@H](OCCO)[C@H](OC)C2)CC(=O)[C@H](C)/C=C(\C)[C@@H](O)[C@@H](OC)C(=O)[C@H](C)C[C@H](C)/C=C/C=C/C=C/1C [everolimus] + OCc1c[nH]c2ccccc12 [Indole-3-carbinol] (first compound 0.02 µM, partner dose 0.8 µM)",516%,104%,268%,242%,126%,94.6%,301%,160%,40.9%,109%,98.1%,168%,65.8%,,,
"CO[C@H]1C[C@@H]2CC[C@@H](C)[C@@](O)(O2)C(=O)C(=O)N2CCCC[C@H]2C(=O)O[C@H]([C@H](C)C[C@@H]2CC[C@@H](OCCO)[C@H](OC)C2)CC(=O)[C@H](C)/C=C(\C)[C@@H](O)[C@@H](OC)C(=O)[C@H](C)C[C@H](C)/C=C/C=C/C=C/1C [everolimus] + CNC(=O)c1cc(Oc2ccc(NC(=O)Nc3ccc(Cl)c(C(F)(F)F)c3)cc2)ccn1 [sorafenib] (first compound 0.02 µM, partner dose 0.4 µM)",93.1%,143%,67.9%,35.2%,328%,58.6%,443%,84%,111%,101%,107%,116%,80.3%,,,

# — the supplement of paper PMC4604168 (melanoma cell lines)
